Source: the supplement of paper PMC8047044
Counter-ions that a name gives are not always drawn. Some of the results follow. Repeats are few or missing, and single values can be far off.

Test system: Neuro-2a
Assay: neurite formation score, plate-normalized to DMSO control mean 5.04 (score (0-8 scale)); higher = more or longer neurites
Conditions: 10 µM

| SMILES | neurite formation score |
| --- | --- |
| C=CC(=O)Nc1cccc(Sc2nc(Nc3ccc(N4CCN(C)CC4)cc3)ncc2Cl)c1 | 4.54 |
| CCN(CC)CCCC(C)Nc1ccnc2cc(Cl)ccc12 (centres undefined) [Chloroquine diphosphate] | 5.09 |
| NC(=O)c1ncn([C@@H]2O[C@H](CO)[C@@H](O)[C@H]2O)c1N | 4.19 |
| Cc1c(NC(=O)OC[C@@H]2COCCN2)cn2ncnc(Nc3ccc4c(cnn4Cc4cccc(F)c4)c3)c12 | 4.54 |
| O=C(Nc1c[nH]nc1-c1nc2ccc(CN3CCOCC3)cc2[nH]1)NC1CC1 | 2.08 |
| CC[C@H](Nc1ncnc2[nH]cnc12)c1nc2cccc(F)c2c(=O)n1-c1ccccc1 [CAL-101 (Idelalisib, GS-1101)] | 4.21 |
| Cc1nc(Nc2n[nH]c3c2CN(C(=O)N[C@H](CN(C)C)c2ccccc2)C3(C)C)c2sccc2n1 | -0.256 |
| CS(=O)(=O)N1CCC(NC(=O)c2[nH]ncc2NC(=O)c2c(Cl)cccc2Cl)CC1 | 3.42 |
| O=C(/C=C/c1ccc2ccccc2n1)c1ccncc1 | 0.189 |
| NC(=O)Nc1sc(-c2ccc(F)cc2)cc1C(N)=O | 2.41 |
| CC[C@H](CO)Nc1nc(NCc2ccccc2)c2ncn(C(C)C)c2n1 [Roscovitine (Seliciclib,CYC202)] | 4.88 |
| CNc1nc(-c2ccc3c(N)n[nH]c3c2)cc(N2C[C@@H](C(=O)NC3CCCCC3)CC[C@H]2C)n1 | 4.86 |
| Cc1cn(-c2cc(NC(=O)c3ccc(C)c(Nc4nccc(-c5cccnc5)n4)c3)cc(C(F)(F)F)c2)cn1 [Nilotinib(AMN-107)] | 4.19 |
| CCN(CC)CCCCNc1ncc2cc(-c3cc(OC)cc(OC)c3)c(NC(=O)NC(C)(C)C)nc2n1 | 4.19 |
| CNCc1ccc(-c2cc(-c3nc(-c4ccc(S(=O)(=O)C(C)C)cc4)cnc3N)on2)cc1 | 1.43 |
| CC(C)(C)c1ccc(S(=O)(=O)/C=C/C#N)cc1 | 0.189 |
| O=C1NC(=O)/C(=C/c2cccc(C(F)(F)F)c2)S1 | 1.74 |
| CNC(=O)c1cc(Oc2ccc(NC(=O)Nc3cc(C(C)(C)C)nn3-c3ccc4ncccc4c3)c(F)c2)ccn1 [DCC-2036 (Rebastinib)] | 1.76 |
| CCCCCCCCCCCCCCCCOP(=O)([O-])OCC[N+](C)(C)C [Miltefosine] | 1.09 |
| O=C1NC(=O)/C(=C\c2ccc3nccnc3c2)S1 | 4.76 |

| SMILES | neurite formation score |
| --- | --- |
| COc1cc2c(N3CCN(C(=O)Nc4ccc(OC(C)C)cc4)CC3)ncnc2cc1OCCCN1CCCCC1 [Tandutinib (MLN518)] | 4.76 |
| CNC(=O)c1cc(Oc2ccc(NC(=O)Nc3ccc(Cl)c(C(F)(F)F)c3)c(F)c2)ccn1 [Regorafenib] | 3.52 |
| O=C1NC(=O)C(c2cnc3ccccn23)=C1c1cn2c3c(cc(F)cc13)CN(C(=O)N1CCCCC1)CC2 | 1.09 |
| Cc1ccc(F)c(NC(=O)Nc2ccc(-c3cccc4[nH]nc(N)c34)cc2)c1 [Linifanib (ABT-869)] | 3.09 |
| Cc1ccc(-n2nc(C(C)(C)C)cc2NC(=O)Nc2ccc(OCCN3CCOCC3)c3ccccc23)cc1 [BIRB 796 (Doramapimod)] | 2.52 |
| Cc1cc(CS(=O)(=O)c2ccccc2)cc(OCc2ccc(CN3CCC[C@@H]3CO)cc2)c1 | 4.74 |
| N#CCNC(=O)c1ccc(-c2ccnc(Nc3ccc(N4CCOCC4)cc3)n2)cc1 [CYT387 sulfate salt] | 5.74 |
| CCOC(=O)c1cnc2ccc(-c3cncc(NS(=O)(=O)c4ccccc4)c3)cn12 | 0.189 |
| CCOc1cc2ncc(C#N)c(Nc3ccc(F)c(Cl)c3)c2cc1NC(=O)/C=C/CN(C)C [Pelitinib (EKB-569)] | 0.543 |
| CN(C)CCCn1cc(C2=C(c3c[nH]c4ccccc34)C(=O)NC2=O)c2ccccc21 | 4.52 |
| COc1cc2nccc(Oc3ccc(NC(=O)Nc4cc(C)on4)c(Cl)c3)c2cc1OC [Tivozanib (AV-951)] | 0.876 |
| CO[C@H]1C[C@@H]2CC[C@@H](C)[C@@](O)(O2)C(=O)C(=O)N2CCCC[C@H]2C(=O)O[C@H]([C@H](C)C[C@@H]2CC[C@@H](OC(=O)C(C)(CO)CO)[C@H](OC)C2)CC(=O)[C@H](C)/C=C(\C)[C@@H](O)[C@@H](OC)C(=O)[C@H](C)C[C@H](C)/C=C/C=C/C=C/1C [Temsirolimus] | 3.85 |
| CNC(=O)c1ccc(C)c(-n2c(C)cc(OCc3ccc(F)cc3F)c(Br)c2=O)c1 | 3.52 |
| O=c1ncn2nc(Sc3ccc(F)cc3F)ccc2c1-c1c(Cl)cccc1Cl | 4.43 |
| CCNC(=O)Nc1ccc(-c2nc3c(c(N4CCOC[C@@H]4C)n2)CCN(C2COC2)C3)cc1 | 4.21 |
| COc1c(C)c(C(=O)c2ccc(N)c(C(=O)O)c2)n2ccccc12 | 4.43 |
| N#Cc1c(Oc2ccc(F)c(NC(=O)Cc3cccc(C(F)(F)F)c3)c2)ccc2nc(NC(=O)C3CC3)sc12 | 2.85 |
| N[C@@H]1CCCN(c2c(/C=C3\SC(=O)NC3=O)cccc2-c2ccccc2)C1 | 4.08 |
| Cc1cc(C)c(/C=C2\C(=O)Nc3ccccc32)[nH]1 [Semaxanib (SU5416)] | 5.19 |

Grouped by structure, the entries above containing an NH in an aromatic ring.

| SMILES | neurite formation score |
| --- | --- |
| O=C(Nc1c[nH]nc1-c1nc2ccc(CN3CCOCC3)cc2[nH]1)NC1CC1 | 2.08 |
| CC[C@H](Nc1ncnc2[nH]cnc12)c1nc2cccc(F)c2c(=O)n1-c1ccccc1 [CAL-101 (Idelalisib, GS-1101)] | 4.21 |
| Cc1nc(Nc2n[nH]c3c2CN(C(=O)N[C@H](CN(C)C)c2ccccc2)C3(C)C)c2sccc2n1 | -0.256 |
| CS(=O)(=O)N1CCC(NC(=O)c2[nH]ncc2NC(=O)c2c(Cl)cccc2Cl)CC1 | 3.42 |
| CNc1nc(-c2ccc3c(N)n[nH]c3c2)cc(N2C[C@@H](C(=O)NC3CCCCC3)CC[C@H]2C)n1 | 4.86 |
| Cc1ccc(F)c(NC(=O)Nc2ccc(-c3cccc4[nH]nc(N)c34)cc2)c1 [Linifanib (ABT-869)] | 3.09 |
| CN(C)CCCn1cc(C2=C(c3c[nH]c4ccccc34)C(=O)NC2=O)c2ccccc21 | 4.52 |
| Cc1cc(C)c(/C=C2\C(=O)Nc3ccccc32)[nH]1 [Semaxanib (SU5416)] | 5.19 |
